Experiments:
[1] = log P value (octanol:water); assay type: physicochemical; conditions: water/n-octanol
Excerpt: The partition coefficient (P) is the ratio of concentrations of a compound in a mixture of two immiscible solvents at equilibrium. This ratio is therefore a comparison of the solubility of the solute in these two liquids. In the chemical and pharmaceutical sciences, both phases usually are solvents. Most commonly, one of the solvents is water, while the second is hydrophobic such as 1-octanol.
Log P=log 10(Partition Coefficient)
Partition Coefficient,P=[organic]/[aqueous]

[2] = water solubility; assay type: physicochemical; conditions: room temperature

log P [1]: 3.06
Water solubility [2]: 99 µg/mL
Compound: CCCCCCCC1CCC(=O)O1 (centres unmarked) [ALDEHYD C14 SOG]

— US20220387268A1, “OIL-IN-WATER MACROEMULSION” (SYMRISE AG, priority 2019, published 2022)
